Record: PubChem BioAssay AID504774 (Drosophila RNAi Screening Center, 2011)

Screen: 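Genes required for cells to withstand methyl methanesulphonate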 (primary screen)
Cell system: Drosophila Kc167 cells
Reagent: long dsRNA against Drosophila genes, about 0.25 µg dsRNA per well
Duration: about 6 days: 3 days knock-down, then 3 days with or without MMS
Challenge: methyl methanesulphonate 0.004% (w/v) for 3 days after knock-down
Measurement: 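Viability in wells given MMS, read as ATP luminescence, normalised by quantiles plate by plate and averaged across replicates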
Direction: mean viability with MMS: higher = more surviving cells after MMS
The deposit covers about 23,000 reagents; this is an unselected part of those that have a named target and a result. 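Values are quantile-normalised luminescence on an arbitrary scale; higher means more cells surviving MMS.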 Reagents against one gene are numbered here. Not all columns of the deposit are shown. Reagent sequences are not shown.

no.	target gene	dsRNA no.	mean viability with MMS
1	Pgam5-2 (GeneID 37899)	1	3.53e6
2	CG1688 (GeneID 36005)	1	3.47e6
3	CG1688 (GeneID 36005)	2	3.50e6
4	CG5096 (GeneID 34410)	1	3.39e6
5	CG1738 (GeneID 32075)	1	3.57e6
6	Sodq (GeneID 43133)	1	3.64e6
7	Ltn1 (GeneID 40127)	1	3.42e6
8	Ltn1 (GeneID 40127)	2	3.74e6
9	Lcp1 (GeneID 35817)	1	3.39e6
10	GstD5 (GeneID 48338)	1	3.60e6

Sorted by “mean viability with MMS” (high to low): some entries from above
target gene	dsRNA no.	mean viability with MMS
Ltn1 (GeneID 40127)	2	3.74e6
Sodq (GeneID 43133)	1	3.64e6
CG1738 (GeneID 32075)	1	3.57e6
Ltn1 (GeneID 40127)	1	3.42e6

Continued.
no.	target gene	dsRNA no.	mean viability with MMS
11	Os-C (GeneID 40942)	1	3.72e6
12	PGS1 (GeneID 42254)	1	3.54e6
13	List (GeneID 37157)	1	3.44e6
14	CG5928 (GeneID 31539)	1	3.58e6
15	dod (GeneID 33111)	1	3.69e6
16	Prim2 (GeneID 44915)	1	3.30e6
17	VhaM9.7-d (GeneID 42041)	1	3.54e6
18	Eip93F (GeneID 44936)	1	3.52e6
19	Eip93F (GeneID 44936)	2	3.37e6
20	Eip93F (GeneID 44936)	3	3.69e6
21	Eip93F (GeneID 44936)	4	2.38e6
22	ovo (GeneID 31429)	1	3.43e6
23	ovo (GeneID 31429)	2	3.57e6
24	CG2082 (GeneID 40713)	1	3.81e6
25	GLaz (GeneID 36447)	1	3.45e6
26	CG3984 (GeneID 41821)	1	3.59e6
27	exp (GeneID 36276)	1	3.25e6
28	modSP (GeneID 42032)	1	3.68e6
29	modSP (GeneID 42032)	2	3.64e6
30	modSP (GeneID 42032)	3	3.48e6
